# Library screen at single concentrations

Protein sequences, listed by entry. Tags and fused reporters are not part of them. Residues count along the entry.
UniProt A4I591, 1-473: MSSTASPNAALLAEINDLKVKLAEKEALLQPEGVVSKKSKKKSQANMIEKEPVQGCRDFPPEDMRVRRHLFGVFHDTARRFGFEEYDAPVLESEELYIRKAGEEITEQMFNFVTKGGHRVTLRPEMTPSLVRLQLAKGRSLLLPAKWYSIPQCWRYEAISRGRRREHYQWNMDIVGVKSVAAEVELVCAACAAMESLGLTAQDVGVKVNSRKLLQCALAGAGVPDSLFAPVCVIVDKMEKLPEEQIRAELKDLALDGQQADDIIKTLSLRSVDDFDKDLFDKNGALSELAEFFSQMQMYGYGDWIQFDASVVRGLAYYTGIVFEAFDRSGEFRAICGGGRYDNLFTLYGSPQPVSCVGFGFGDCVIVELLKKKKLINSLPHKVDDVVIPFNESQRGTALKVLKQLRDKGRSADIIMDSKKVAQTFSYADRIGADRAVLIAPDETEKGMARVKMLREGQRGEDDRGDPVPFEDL
UniProt Q4DA54, 1-478: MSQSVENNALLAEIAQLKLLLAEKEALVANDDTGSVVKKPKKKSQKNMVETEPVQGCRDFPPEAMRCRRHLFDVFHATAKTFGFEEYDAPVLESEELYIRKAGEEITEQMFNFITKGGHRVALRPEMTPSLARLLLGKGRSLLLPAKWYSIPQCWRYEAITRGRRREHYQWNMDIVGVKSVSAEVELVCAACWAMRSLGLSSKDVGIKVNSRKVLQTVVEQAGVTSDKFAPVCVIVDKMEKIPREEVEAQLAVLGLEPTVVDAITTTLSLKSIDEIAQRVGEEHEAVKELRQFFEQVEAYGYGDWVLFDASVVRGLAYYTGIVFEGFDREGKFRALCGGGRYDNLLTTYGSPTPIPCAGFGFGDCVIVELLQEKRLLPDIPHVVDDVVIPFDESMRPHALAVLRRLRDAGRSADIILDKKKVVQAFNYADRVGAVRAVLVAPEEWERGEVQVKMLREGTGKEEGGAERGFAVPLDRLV
UniProt Q8IDJ8, 1-583: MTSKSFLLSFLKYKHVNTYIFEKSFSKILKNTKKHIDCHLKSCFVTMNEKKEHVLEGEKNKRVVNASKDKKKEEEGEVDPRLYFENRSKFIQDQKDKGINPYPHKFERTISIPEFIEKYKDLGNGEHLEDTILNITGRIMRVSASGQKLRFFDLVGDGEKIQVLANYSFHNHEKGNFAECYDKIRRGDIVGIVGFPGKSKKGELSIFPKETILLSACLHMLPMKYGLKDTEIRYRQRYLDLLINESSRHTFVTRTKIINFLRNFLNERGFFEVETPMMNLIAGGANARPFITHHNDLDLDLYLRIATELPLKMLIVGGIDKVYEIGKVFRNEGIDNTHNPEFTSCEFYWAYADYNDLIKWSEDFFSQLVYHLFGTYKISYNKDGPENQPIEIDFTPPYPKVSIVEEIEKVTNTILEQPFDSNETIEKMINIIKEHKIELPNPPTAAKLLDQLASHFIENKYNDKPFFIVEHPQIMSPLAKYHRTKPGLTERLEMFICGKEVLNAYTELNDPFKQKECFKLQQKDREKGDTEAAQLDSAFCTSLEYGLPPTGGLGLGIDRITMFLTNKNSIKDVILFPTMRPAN

From ChEMBL document CHEMBL3988442, “University of Dundee, Small-Polar-MMV Screening Library” (2021).

Each number is a percent effect as filed.
How 0% and 100% were set is not recorded. Most values in the screen are low, and negative values occur.
This is an unselected part of the compounds tested.
Two or more numbers in one place are separate tests of the same structure; such repeats can differ widely.
A dash means the value is not listed here; it may have been measured.

LiHisRS: 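Enzyme assay of histidyl-tRNA synthetase; the read-out is not stated. Target: Histidine-tRNA ligase, Leishmania infantum (UniProt A4I591). Compounds at 30 µM. The record gives no direction; compounds that gave an IC50 in retests scored well above the rest, so higher reads as stronger inhibition. The assay is labelled LdHisRS but filed under L. infantum. Size under these conditions: about 69,000 compounds, about 410 of them at 50% or above in at least one test.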
TcHisRS: 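Histidine-tRNA ligase, Trypanosoma cruzi CL Brener (UniProt Q4DA54). Enzyme assay of histidyl-tRNA synthetase; the read-out is not stated. Compounds at 30 µM. The record gives no direction; compounds that gave an IC50 in retests scored well above the rest, so higher reads as stronger inhibition. About 69,000 compounds were tested under these conditions; 0.045% (about 31) showed 50% or more at least once.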
PfKRS1: 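Enzyme assay of the cytosolic lysyl-tRNA synthetase in 384-well plates, read by luminescence. Target: Lysine-tRNA ligase, Plasmodium falciparum 3D7 (UniProt Q8IDJ8). Concentration: 30 µM. Direction is inferred from only a few compounds that gave an IC50; most scored high, so higher reads as stronger inhibition. Of about 69,000 compounds tested this way, about 49 (0.071%) reached 50% or more in at least one test.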
Leishmania in macrophages: 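Cell assay of Leishmania donovani living inside macrophages; the read-out is not stated. Compounds at 30 µM. The record gives no direction; compounds that gave an IC50 in retests scored well above the rest, so higher reads as stronger inhibition. Size under these conditions: about 69,000 compounds, about 1,000 of them at 50% or above in at least one test.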

compound,LiHisRS,TcHisRS,PfKRS1,Leishmania in macrophages
O=C(O)C(F)(F)F.[H][C@@]12CN(Cc3ccc(F)cc3)C[C@H](C(=O)N3CCCO3)[C@]1([H])CCO2,-,-,-,17.77%
[H][C@@]12CN(Cc3ccncc3)C[C@]1([H])N(CCCN1CCOCC1)C(=O)O2,-,-,-,-3.243%
COc1ccc(CN2CCCn3cncc3C2)cc1Cn1cncn1,21.21%,-1.087%,-2.864%,8.127%
c1ccc(N2CC[C@H](OCC3CC3)[C@@H]2Cc2cccnc2)nc1,19.23%,9.497%,3.992%,-
COc1ccc(C(=O)NCc2cc(N3CCOCC3)ncn2)o1,14.58%,1.266%,-0.07127%,-26.38%
CCC[C@H]1CN(CCS(C)(=O)=O)C[C@@H]1NC(=O)c1ccn(C)n1,-2.857%,5.155%,6.524%,0.375%
CCS(=O)(=O)N1CC[C@H]2C(=O)N(Cc3cccnc3)CCO[C@H]2C1,17.65%,3.941%,-4.11%,-
O=C(NCc1ccc(F)cc1)C1CCCN(c2ccc3nncn3n2)C1 (configuration not stated),-2.597%,2.424%,-3.551%,25.45%
Cn1ccc(CN2CCC(NC(=O)Cc3ccccc3)CC2)cc1=O,-6.383%,2.29%,3.141%,-6.956%
CC1(Cc2ccccn2)NCCc2[nH]cnc21 (configuration not stated),-14.29%,6.186%,1.699%,18.02%
[H][C@]12CCC[C@@]1(COCc1cccnc1)CN(C(=O)c1ccc(C)s1)C2,-,-,-,-1.912%
CCNC(=O)C1CCN(c2nccc(C3CCCC3)n2)C1 (configuration not stated),17.17%,5.806%,0.5973%,4.466%
CCN1CCC(CC(=O)NCCc2nc(C)c(Cl)s2)CC1,18.18%,5.102%,4.936%,35.6%
O=C(O)C1(Cc2ccc(F)cc2F)CCCN(Cc2ccncc2)C1 (configuration not stated),10%,14.46%,5.599%,-13.78%
O=C(O)c1cc(-c2ccoc2)cc(S(=O)(=O)N2CCSCC2)c1,18.8%,2.703%,4.052%,10.22%
O=C(CCN1CCCC1c1ccccn1)N1CCc2ccccc2C1 (configuration not stated),37.37%,16.13%,3.206%,6.193%
[H][C@@]12C[C@@H](C)O[C@]1([H])CN(C(=O)C1=CCCCC1)C2,-,-,-,-0.9612%
CC(C)NC(=O)CN(C)C(=O)c1c(Br)c2ccccc2n1C,-22.37%,4.433%,6.919%,17.93%
Cc1ccc(NC(=O)N2CCC(CO)(Nc3ccccc3)CC2)cc1,3.448%,7.216%,-3.956%,64.38%
O=C(O)C(F)(F)F.c1ccc(CN2CCC3(CC2)CC(Nc2nccs2)CO3)nc1 (configuration not stated),-,-,-,22.96%
COc1cc(F)c(S(=O)(=O)NCc2ccnc(N(C)C)n2)cc1OC,-15.15%,5.806%,-1.499%,-20.71%
CCOc1ccccc1OC1CCN(C(=O)c2[nH]nc(C)c2Br)CC1,23.64%,1.17%,0.7777%,36.28%
CCCc1nnsc1C(=O)NCC(O)c1cccs1 (configuration not stated),12.9%,4.663%,1.342%,-11.6%
CC(O)c1cn(CC2CCN(C(=O)CN3CCCC3=O)CC2)nn1 (configuration not stated),4.167%,7.729%,-0.2194%,-14.74%
Cc1cnc(C(=O)N2CCOCC2C)cn1 (configuration not stated),-4.762%,3.96%,-0.06723%,-1.412%
O=C(O)C(F)(F)F.O=C(O)C(F)(F)F.[H][C@@]12CCN(c3nncs3)[C@@]1([H])CCN2Cc1csc(C)n1,-,-,-,-0.6347% and 11.03%
CCCc1cc(CNC(=O)C2CCOc3ccccc3C2)on1 (configuration not stated),15.24%,2.479%,2.151%,20.25%
Fc1cnc(N2CCCC3(CN(Cc4ccncc4)CCO3)C2)nc1 (configuration not stated),15.33%,8.197%,8.115%,-
CC(Cn1ccnc1)NC(=O)C1(c2ccc3c(c2)OCCO3)CCCC1 (configuration not stated),-14.61%,-6.015%,4.705%,-5.297%
COc1cccc(CNc2cccnc2-n2cccn2)c1OC,6.122%,3.077%,2.997%,12.7%
CCCn1nccc1NC(=O)c1ccc(Cl)c(N2CCNC2=O)c1,2.74%,7.937%,5.263%,1.528%
N#Cc1ccc(N2CCC3(CCC(=O)N3Cc3ccncc3)CC2)nc1.O=C(O)C(F)(F)F.O=C(O)C(F)(F)F,-,-,-,1.816%
O=C([C@@H]1Cc2[nH]cnc2CN1C(=O)NC1CCCCC1)N1CCCC1,25%,-1.98%,9.601%,23.87%
Cc1cc(C(=O)N2CCCC(n3ccnc3C)C2)c(C)s1 (configuration not stated),8.571%,1.087%,-0.01161%,41.98%
Cc1ccc(N2CCCC(NCc3cccc4c3OCCO4)C2)nn1 (configuration not stated),16.67%,4.511%,6.454%,27.97%
CNC(=O)C(NC(C)=O)c1ccc(F)c(F)c1 (configuration not stated),9.821%,-8.621%,7.991%,24.23%
CC(=O)Nc1cccc(-c2ccccc2CCN)c1,8.333%,8.696%,1.299%,-35.33%
CNC(=O)N1CCC2(CC1)CNc1ccc(F)cc12,40.17%,8.021%,8.749%,-
c1csc(CCC2CCCCN2Cc2noc(C3CC3)n2)c1 (configuration not stated),6.993%,9.453%,-1.327%,-14.11%
CN1CC2(CCCN(Cc3nnc(-c4ccco4)o3)CC2)OC1=O (configuration not stated),14.52%,0%,5.23%,9.515%
Cc1nn(C)c(C)c1CC(=O)NCc1cccnc1OC1CCCC1,10.26%,5.946%,8.434%,-2.916%
O=C1CCc2cc(S(=O)(=O)NC(=O)c3ccc4c(c3)COC4)ccc2N1,14.4%,0.9804%,4.746%,-0.01719%
CC(C)(C)CCS(=O)(=O)NCCc1csc(N2CCCC2)n1,8.901%,5.882%,5.031%,30.66%
O=C(c1cccnc1-n1cncn1)N1CCN(CC(F)(F)F)CC1,20.55%,4.926%,5.122%,31.49%
COC(C)c1cccc(NC(=O)N(CCC#N)Cc2ccccn2)c1 (configuration not stated),13.79%,0.5236%,2.173%,14.55%
CC(=O)c1ccc(C(=O)Nc2ccnc(N(C)C)n2)cc1,19.18%,2.105%,6.266%,15.64%
CCOc1ccc(NC(=O)c2cc(C)c(C)o2)cc1CO,12.68%,3.185%,2.979%,-4.048%
CCCN(C(=O)COC)c1nc2c(s1)CCc1c-2cnn1C,80%,21.51%,74.82%,1.095%
O=C(CCn1nc(C(F)(F)F)c(Br)c1C1CC1)NN1CCOCC1,-5%,0%,-0.6845%,-4.008%

4 of the entries, repeated:

- Cc1nn(C)c(C)c1CC(=O)NCc1cccnc1OC1CCCC1 | LiHisRS: 10.26%; TcHisRS: 5.946%; PfKRS1: 8.434%; Leishmania in macrophages: -2.916%
- O=C(NCc1ccc(F)cc1)C1CCCN(c2ccc3nncn3n2)C1 (configuration not stated) | LiHisRS: -2.597%; TcHisRS: 2.424%; PfKRS1: -3.551%; Leishmania in macrophages: 25.45%
- Cc1cnc(C(=O)N2CCOCC2C)cn1 (configuration not stated) | LiHisRS: -4.762%; TcHisRS: 3.96%; PfKRS1: -0.06723%; Leishmania in macrophages: -1.412%
- CN1CC2(CCCN(Cc3nnc(-c4ccco4)o3)CC2)OC1=O (configuration not stated) | LiHisRS: 14.52%; TcHisRS: 0%; PfKRS1: 5.23%; Leishmania in macrophages: 9.515%